Results reported in publication PMC10223906.
Results are given in words; binding and its absence hold for the method and conditions named. Binding seen in cells or lysates may run through a third protein. Some entries that bind do so weakly or less than the wild type.

Amino acid sequences for entries named in this document (tags omitted).
UniProt Q13535: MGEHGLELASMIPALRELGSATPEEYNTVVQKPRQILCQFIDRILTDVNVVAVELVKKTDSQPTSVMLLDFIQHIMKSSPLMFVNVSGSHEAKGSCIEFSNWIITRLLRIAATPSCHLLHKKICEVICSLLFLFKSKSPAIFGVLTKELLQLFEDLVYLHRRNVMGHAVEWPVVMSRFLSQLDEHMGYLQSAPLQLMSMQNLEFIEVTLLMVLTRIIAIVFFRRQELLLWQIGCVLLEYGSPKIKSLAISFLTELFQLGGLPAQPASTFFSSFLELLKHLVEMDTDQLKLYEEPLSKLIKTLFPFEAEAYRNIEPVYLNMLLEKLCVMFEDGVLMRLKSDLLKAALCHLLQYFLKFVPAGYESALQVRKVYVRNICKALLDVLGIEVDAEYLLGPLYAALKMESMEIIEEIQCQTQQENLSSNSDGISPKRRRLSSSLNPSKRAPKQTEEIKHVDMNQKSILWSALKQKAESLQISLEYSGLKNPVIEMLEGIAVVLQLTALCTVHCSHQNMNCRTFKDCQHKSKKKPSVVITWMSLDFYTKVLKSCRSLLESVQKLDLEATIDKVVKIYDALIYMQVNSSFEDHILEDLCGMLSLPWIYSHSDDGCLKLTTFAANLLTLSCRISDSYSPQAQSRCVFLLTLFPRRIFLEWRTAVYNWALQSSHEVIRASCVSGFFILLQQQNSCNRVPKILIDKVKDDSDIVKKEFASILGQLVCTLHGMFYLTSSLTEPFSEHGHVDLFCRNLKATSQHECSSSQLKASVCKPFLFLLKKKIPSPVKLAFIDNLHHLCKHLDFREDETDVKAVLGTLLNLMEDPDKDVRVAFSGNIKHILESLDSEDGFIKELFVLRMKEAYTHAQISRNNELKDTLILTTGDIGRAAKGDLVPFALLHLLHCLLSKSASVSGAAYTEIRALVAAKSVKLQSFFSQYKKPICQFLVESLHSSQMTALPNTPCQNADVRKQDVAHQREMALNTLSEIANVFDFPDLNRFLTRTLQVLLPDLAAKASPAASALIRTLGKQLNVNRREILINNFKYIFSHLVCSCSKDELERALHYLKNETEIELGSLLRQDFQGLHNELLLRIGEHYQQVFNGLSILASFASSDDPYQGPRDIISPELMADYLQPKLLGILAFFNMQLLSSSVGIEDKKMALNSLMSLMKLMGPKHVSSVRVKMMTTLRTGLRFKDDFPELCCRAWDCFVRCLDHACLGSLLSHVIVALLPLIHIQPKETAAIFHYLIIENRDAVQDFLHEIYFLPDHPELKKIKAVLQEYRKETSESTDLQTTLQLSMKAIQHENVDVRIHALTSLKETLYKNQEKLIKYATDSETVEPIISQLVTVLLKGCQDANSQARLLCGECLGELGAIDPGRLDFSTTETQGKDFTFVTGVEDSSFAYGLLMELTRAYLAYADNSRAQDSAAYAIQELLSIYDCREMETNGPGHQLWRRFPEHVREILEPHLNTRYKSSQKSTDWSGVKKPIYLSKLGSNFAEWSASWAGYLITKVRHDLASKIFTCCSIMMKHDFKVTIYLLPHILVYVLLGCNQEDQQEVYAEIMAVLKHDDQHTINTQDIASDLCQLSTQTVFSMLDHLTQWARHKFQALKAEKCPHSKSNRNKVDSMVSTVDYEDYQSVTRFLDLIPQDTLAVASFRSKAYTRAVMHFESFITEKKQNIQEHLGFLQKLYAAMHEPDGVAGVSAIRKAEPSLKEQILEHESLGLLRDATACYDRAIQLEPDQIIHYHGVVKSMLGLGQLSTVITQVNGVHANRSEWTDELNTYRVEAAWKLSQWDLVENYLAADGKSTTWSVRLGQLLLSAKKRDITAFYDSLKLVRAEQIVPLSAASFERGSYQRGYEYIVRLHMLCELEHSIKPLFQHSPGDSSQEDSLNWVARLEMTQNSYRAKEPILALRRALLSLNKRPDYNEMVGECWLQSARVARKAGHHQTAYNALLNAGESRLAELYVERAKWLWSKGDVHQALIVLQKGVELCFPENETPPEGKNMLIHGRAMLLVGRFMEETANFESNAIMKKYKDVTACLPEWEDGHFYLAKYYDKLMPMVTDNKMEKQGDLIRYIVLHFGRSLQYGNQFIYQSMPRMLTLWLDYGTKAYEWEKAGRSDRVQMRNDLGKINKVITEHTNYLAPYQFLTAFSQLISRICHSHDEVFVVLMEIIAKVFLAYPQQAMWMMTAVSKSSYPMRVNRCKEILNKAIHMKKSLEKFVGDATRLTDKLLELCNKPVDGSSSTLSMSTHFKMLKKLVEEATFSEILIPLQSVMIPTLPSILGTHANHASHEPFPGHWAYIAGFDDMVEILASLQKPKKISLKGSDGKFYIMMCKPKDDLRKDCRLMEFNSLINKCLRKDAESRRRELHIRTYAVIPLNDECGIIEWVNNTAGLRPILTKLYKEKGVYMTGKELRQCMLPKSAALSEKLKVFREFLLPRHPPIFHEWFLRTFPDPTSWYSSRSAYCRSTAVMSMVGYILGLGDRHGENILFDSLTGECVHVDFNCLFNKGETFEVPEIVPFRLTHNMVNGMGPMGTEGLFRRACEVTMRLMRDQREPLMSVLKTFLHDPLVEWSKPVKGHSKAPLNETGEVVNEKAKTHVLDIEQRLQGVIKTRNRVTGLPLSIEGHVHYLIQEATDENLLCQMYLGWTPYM

Legend:
[1] = target: T1, ATF2 (human (endogenous in HCT116, HT29)) (UniProt P15336); assay: proximity ligation; Duolink PLA with anti-p-ATR (p-Thr1989) and anti-ATF2 E243 on fixed, permeabilised HCT116 cells after 48 h of 5-FU or DMSO
T1 sequence: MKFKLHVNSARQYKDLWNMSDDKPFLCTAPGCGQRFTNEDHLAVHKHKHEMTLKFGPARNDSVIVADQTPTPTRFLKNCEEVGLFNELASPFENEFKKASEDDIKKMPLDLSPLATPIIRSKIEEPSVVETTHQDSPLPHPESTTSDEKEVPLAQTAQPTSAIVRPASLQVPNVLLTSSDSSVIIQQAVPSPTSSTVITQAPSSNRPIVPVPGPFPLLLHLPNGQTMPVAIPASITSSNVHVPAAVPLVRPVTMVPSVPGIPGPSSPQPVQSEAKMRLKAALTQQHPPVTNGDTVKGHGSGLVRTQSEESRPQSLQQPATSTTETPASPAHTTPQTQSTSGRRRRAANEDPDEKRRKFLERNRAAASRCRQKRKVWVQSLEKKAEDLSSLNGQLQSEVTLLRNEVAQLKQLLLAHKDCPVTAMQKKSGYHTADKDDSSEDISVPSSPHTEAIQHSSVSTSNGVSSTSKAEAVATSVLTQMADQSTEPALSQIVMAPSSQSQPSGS

[2] = target: T1, ATF2 (human (endogenous in HCT116, HT29)); assay: co-IP; anti-ATF2 (E243) antibody, Dynabeads Protein G, lysate of HT29 cells treated with 5-FU or DMSO for 48 h; Western blot for p-ATR Thr1989
[3] = target: T1, ATF2 (human (endogenous in HCT116, HT29)); assay: co-IP; anti-ATF2 (E243) antibody, Dynabeads Protein G, 500 ug lysate of HCT116 cells treated with 5-FU or DMSO for 48 h; Western blot for p-ATR Thr1989
[4] = target: T2, Chk1 (human (endogenous in HCT116, HT29)) (UniProt O14757); assay: co-IP; anti-Chk1 antibody, Dynabeads Protein G, lysates of HT29 and ATF2-KO clones B5 and F10, 60 uM 5-FU for 48 h or DMSO; Western blot for p-ATR Thr1989
T2 sequence: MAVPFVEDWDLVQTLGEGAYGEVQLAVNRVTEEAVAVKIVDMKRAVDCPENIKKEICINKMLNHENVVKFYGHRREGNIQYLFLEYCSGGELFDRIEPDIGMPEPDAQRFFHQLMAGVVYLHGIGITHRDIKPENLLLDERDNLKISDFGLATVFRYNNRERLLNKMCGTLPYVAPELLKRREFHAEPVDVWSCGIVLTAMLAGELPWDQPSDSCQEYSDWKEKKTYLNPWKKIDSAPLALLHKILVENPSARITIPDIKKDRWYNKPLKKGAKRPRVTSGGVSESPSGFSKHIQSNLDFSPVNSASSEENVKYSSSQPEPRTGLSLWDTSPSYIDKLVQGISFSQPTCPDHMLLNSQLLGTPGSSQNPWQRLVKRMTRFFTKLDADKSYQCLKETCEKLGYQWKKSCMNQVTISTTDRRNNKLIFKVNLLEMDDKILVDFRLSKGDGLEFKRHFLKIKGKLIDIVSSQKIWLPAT

[5] = target: T2, Chk1 (human (endogenous in HCT116, HT29)); assay: co-IP; anti-Chk1 antibody, Dynabeads Protein G, lysates of HCT116 and ATF2-KO clones E5 and F9 treated with 5-FU or DMSO for 48 h; Western blot for p-ATR Thr1989

Measured: binding

p-ATR^Thr1989 (activated ATR) (from UniProt Q13535 1-2644) (enzyme)
binds: [1] | [2] | [3] | [4] | [5]
